Measurements: article doi:10.1101/2023.04.13.536796
No constants are given. Whether binding was seen depends on the method and setting. Binding seen in cells or lysates may run through a third protein. Some results given as binding are weak or reduced against the parent protein; the word gives no strength.

Experiments:
Experiment in all cases: co-IP
Settings in all cases: remark: other sources report otherwise
[1] = target: T1, HRD1 (HMG-CoA reductase degradation 1), endogenous (human (endogenous in HEK293T)), Q86TM6
[2] = target: T1, HRD1 (HMG-CoA reductase degradation 1), …; remark: listed apart in the source
[3] = target: T1, HRD1 (HMG-CoA reductase degradation 1), …; remark: listed apart in the source

Measured: binding

B1: HERP1 (Homocysteine-induced ER protein 1), endogenous, Q15011 1-391 (protein)
chain: MESETEPEPVTLLVKSPNQRHRDLELSGDRGWSVGHLKAHLSRVYPERPRPEDQRLIYSGKLLLDHQCLRDLLPKQEKRHVLHLVCNVKSPSKMPEINAKVAESTEEPAGSNRGQYPEDSSSDGLRQREVLRNLSSPGWENISRPEAAQQAFQGLGPGFSGYTPYGWLQLSWFQQIYARQYYMQYLAATAASGAFVPPPSAQEIPVVSAPAPAPIHNQFPAENQPANQNAAPQVVVNPGANQNLRMNAQGGPIVEEDDEINRDWLDWTYSAATFSVFLSILYFYSSLSRFLMVMGATVVMYLHHVGWFPFRPRPVQNFPNDGPPPDVVNQDPNNNLQEGTDPETEDPNHLPPDRDVLDGEQTSPSFMSTAWLVFKTFFASLLPEGPPAIAN
binds: [1] | [2] | [3]
